Measured values from PMC5832925, “Hypoxia-inducible lipid droplet-associated protein inhibits adipose triglyceride lipase” (Journal of Lipid Research, 2018).
These are yes or no findings as the source states them, for the method shown. Binding seen in cells or lysates may run through a third protein. Some binding calls cover weakened binding; strength is not graded here. Where a sequence is shown, tags or fusion partners need not be part of it.

Molecular target: T1, mATGL_FL_flag (mouse adipose triglyceride lipase, full length) (mouse) (UniProt Q8BJ56)
T1 sequence: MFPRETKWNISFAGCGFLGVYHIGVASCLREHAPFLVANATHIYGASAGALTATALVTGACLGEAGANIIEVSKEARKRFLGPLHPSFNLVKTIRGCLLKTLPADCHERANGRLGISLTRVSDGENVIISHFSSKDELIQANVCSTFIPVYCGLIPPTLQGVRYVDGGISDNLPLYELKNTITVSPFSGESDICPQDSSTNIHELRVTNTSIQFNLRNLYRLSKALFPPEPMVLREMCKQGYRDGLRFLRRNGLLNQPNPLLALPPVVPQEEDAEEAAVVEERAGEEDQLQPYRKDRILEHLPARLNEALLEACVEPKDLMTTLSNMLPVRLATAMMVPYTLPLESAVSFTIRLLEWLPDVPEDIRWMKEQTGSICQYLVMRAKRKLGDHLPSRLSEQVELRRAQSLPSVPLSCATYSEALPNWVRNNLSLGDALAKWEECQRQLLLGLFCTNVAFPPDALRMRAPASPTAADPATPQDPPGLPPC
Assay: co-IP; 350 μg HEK293 cell lysate with anti-Flag M2 agarose beads overnight at 4°C; 50 mM Tris-HCl pH 7.4, 150 mM NaCl, 1 mM EDTA, 1% NP40; blots with anti-Flag and Penta His antibodies

binding: binds
B1: 6XHis-smt3-TEV-hHILPDA (human hypoxia-inducible lipid droplet-associated protein, full length) (natural protein, UniProt Q9Y5L2 1-63, looked up)
chain: MKHVLNLYLLGVVLTLLSIFVRVMESLEGLLESPSPGTSWTTRSQLANTEPTKGLPDHPSRSM
notes: human HILPDA (Hig-2), 63 amino acids, construct hHILPDA_1-63 in a modified pSUMO vector with 6XHis tag and TEV site; The fusion protein (22 kDa) was used without removal of smt3; a TEV site lies between smt3 and HILPDA; also called smt3-HILPDA fusion protein; source: E. coli BL21-CodonPlus (DE3)-RIL, purified (HisTrap FF, Superdex 200); not shown: smt3, N-terminal, kept
